Laboratory results from patent US20250099478A1, “PLASMA KALLIKREIN INHIBITORS” (Merck Sharp & Dohme LLC, priority 2022, published 2025).
The structures given here were assigned with low confidence; some may be wrong.

Chains of the proteins cited; added tags and fusions are not shown. Residues count along the entry.
UniProt P03951, 388-625 limits assumed: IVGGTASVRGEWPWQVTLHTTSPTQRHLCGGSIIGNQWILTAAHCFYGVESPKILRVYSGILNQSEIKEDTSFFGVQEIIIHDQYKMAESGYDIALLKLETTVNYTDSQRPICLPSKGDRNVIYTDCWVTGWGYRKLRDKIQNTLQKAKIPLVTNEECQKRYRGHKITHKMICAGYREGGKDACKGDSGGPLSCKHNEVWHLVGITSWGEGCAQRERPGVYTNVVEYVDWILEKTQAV
UniProt P03951, 19-387 partner limits assumed: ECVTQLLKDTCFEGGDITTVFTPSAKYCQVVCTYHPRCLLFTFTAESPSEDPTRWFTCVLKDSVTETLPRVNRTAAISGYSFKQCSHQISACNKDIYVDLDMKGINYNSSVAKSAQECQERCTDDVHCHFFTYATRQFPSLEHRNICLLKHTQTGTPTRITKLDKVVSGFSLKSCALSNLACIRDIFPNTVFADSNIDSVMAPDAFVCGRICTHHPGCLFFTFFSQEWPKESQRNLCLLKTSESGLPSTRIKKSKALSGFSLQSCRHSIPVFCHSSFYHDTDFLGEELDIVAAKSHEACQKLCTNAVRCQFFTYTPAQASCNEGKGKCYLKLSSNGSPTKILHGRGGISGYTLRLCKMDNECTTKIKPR
UniProt P03952, 391-638 limits assumed: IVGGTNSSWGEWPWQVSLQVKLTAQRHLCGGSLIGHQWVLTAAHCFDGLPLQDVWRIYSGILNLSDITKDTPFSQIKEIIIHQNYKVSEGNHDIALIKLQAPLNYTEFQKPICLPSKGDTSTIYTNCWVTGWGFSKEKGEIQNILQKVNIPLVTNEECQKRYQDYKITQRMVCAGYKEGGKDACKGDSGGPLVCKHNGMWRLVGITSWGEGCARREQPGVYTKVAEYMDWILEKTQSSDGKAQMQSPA
UniProt P03952, 20-390 partner limits assumed: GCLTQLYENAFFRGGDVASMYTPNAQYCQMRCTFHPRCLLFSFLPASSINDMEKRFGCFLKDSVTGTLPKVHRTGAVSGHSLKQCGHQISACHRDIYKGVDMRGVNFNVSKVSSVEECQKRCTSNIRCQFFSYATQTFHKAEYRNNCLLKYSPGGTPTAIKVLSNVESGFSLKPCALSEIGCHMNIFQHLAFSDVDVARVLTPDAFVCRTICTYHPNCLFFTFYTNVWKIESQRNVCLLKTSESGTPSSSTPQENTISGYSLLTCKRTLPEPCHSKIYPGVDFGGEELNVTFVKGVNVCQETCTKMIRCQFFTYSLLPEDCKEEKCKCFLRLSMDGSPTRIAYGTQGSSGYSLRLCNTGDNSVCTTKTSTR

Columns and labels:
[1] = target: human factor XIa (Homo sapiens, UniProt P03951); test: Factor XIa Assay; settings: read-out: Factor XIa IC50; human factor XIa 0.04 nM, substrate GPR-AFC, 25° C.
Protocol: The effectiveness of a compound of the present invention as an inhibitor of Coagulation factor XIa can be determined using a relevant purified serine protease, and an appropriate synthetic substrate. The rate of hydrolysis of the chromogenic or fluorogenic substrate by the relevant serine protease was measured both in the absence and presence of compounds of the present invention. Assays were conducted at rt or at 37° C. […] A decrease in the rate of fluorescence change in the presence of inhibitor is indicative of enzyme inhibition. Such methods are known to one skilled in the art. The results of this assay are expressed as the half-maximal inhibitory concentrations (IC50), or the inhibitory constant, Ki.
Compounds were pre-incubated for 30 min at 25° C. with human (0.04 nM) factor XIa in 50 mM HEPES buffer with 150 mM sodium chloride, 5 mM calcium chloride, 0.1% PEG 8000, pH 7.4. factor XIa enzymatic activity was determined by addition of the substrate glycine-proline-arginine-7-amido-4-trifluoromethylcoumarin (GPR-AFC) and measurement of the fluorescence at 400/505 nm after a 60 min incubation at 25° C. The % inhibition for each data point was calculated from the data and analyzed using the log (inhibitor) vs. response four parameters equation to determine the half-maximal inhibitory concentrations (IC50). […]

[2] = target: Human plasma kallikrein (Homo sapiens, UniProt P03952); test: Plasma Kallikrein Assay; settings: read-out: PKal IC50; purified Human plasma kallikrein 0.5 nM, substrate Acetyl-K-P-R-AFC

Compound `O=C1CC2(CCCN(C(=O)c3nnc(Cc4ccccc4)[nH]3)C2)c2c(ccc(Cl)c2F)N1` (centres unmarked) has an IC50 [1] of 8.78 µM and an IC50 [2] of 0.0431 µM.
